PubChem BioAssay AID504847 (National Center for Advancing Translational Sciences (NCATS), 2011)
About 3,700 (0.93%) of roughly 400,000 compounds were called active. Inconclusive means that the source gave no clear call. Such entries were picked first, then a sample of the others. Calls come from the whole dose curve; as a rule, active = well fitted inhibition curve with a large enough effect; inconclusive = small, poorly fitted or top-dose-only effect, or another doubt; inactive = no such curve, though single readings can be large or run the other way. Potencies of inconclusive entries are doubtful fits and often do not repeat. The source holds several records for some structures; these can differ, active in one and inactive in another.

Sequences of proteins named here, by UniProt entry; tags and fusion partners are left off. A change or cut given only in a name is not applied to a line headed by its entry.
UniProt P11473: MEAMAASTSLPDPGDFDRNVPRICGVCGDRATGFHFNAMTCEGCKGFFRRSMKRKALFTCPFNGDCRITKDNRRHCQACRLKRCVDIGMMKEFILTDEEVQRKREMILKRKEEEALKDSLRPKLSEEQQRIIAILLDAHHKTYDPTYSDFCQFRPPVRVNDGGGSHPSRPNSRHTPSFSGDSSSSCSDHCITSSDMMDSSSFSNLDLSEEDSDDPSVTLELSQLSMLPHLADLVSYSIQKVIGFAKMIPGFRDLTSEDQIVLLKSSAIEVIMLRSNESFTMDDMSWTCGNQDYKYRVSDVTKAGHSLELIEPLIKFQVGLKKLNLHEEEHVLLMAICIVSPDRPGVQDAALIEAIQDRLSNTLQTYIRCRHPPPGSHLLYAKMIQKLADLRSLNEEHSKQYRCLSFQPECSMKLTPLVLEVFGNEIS

Each compound was assayed against Vitamin D3 receptor (Homo sapiens) (UniProt P11473) (assay: Inhibitors of the vitamin D receptor (VDR): qHTS). Settings: VDR-SRC2-3 peptide fluorescence polarization, 2 h; max response, negative = inhibition: stronger effect = lower value.
Summary of the method: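 Measured by FP: displacement of SRC2-3 coactivator peptide from VDR by library compounds, following a two-hour ambient incubation.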
% is set by controls: 0 for no effect and ±100 for the full control effect; potency is the fitted concentration of half-maximal effect.

Compound | Potency | max response, negative = inhibition
COc1ccc2nc3ccccc3nc2c1N | inconclusive: 89.1 µM [inhibitor, single point] | –
O=S(=O)(c1cccc(-c2n[nH]c(=S)n2Cc2ccccc2)c1)N1CCOCC1 | inconclusive: 100 µM [inhibitor, single point] | –
C=CCOc1c(Br)cc(/C=C2/NC(=S)N(C(C)=O)C2=O)cc1OC | inconclusive: 89.1 µM [inhibitor, single point] | –
CCOc1ccc2[nH]c(SCC(=O)OC)c([N+](=O)[O-])c2c1 | inconclusive: 56.2 µM [inhibitor, partial curve, poor fit] | –
CCNS(=O)(=O)c1ccc(CCC(=O)N2CCCC2)cc1 | inconclusive: 89.1 µM [inhibitor, single point] | –
O=C1NN(c2ccccc2)C(=O)/C1=C/c1coc2ccccc2c1=O | active: 39.8 µM | –
CN(Cc1ccco1)S(=O)(=O)c1nnc(NC(=O)c2ccccc2)s1 | inconclusive: 56.2 µM [inhibitor, partial curve, poor fit] | –
CCOC(=O)CS(=O)(=O)c1nc(-c2ccccc2)cc(C(F)(F)F)n1 | active: 20 µM | –
COc1ccc(NC(=O)c2oc3ccccc3c2NC(=O)C23CC4CC(CC(C4)C2)C3)cc1 | – | inactive: 13.1%
COC(=O)[C@@]1(Cc2ccc(OC)cc2)[C@@H]2C(=CC(=O)[C@H]2CC(=O)C(=O)N2CCCC2)CN1C(=O)c1ccccc1 | active: 89.1 µM | –
Cn1cnnc1SCC(=O)Nc1sc2c(c1C(N)=O)CCC2 | – | inactive: -9.41%
CC(C)OC(=O)[C@@H]1CC[C@H](C)[C@@H](CCCC=O)O1 | – | inactive: 2.94%
CN(CC(=O)Nc1ccccc1C(F)(F)F)Cc1c(O)ccc2ccccc12 | inconclusive: 89.1 µM [inhibitor, single point] | –
CCOC(=O)c1ccc(NC(=O)CN2C(=O)c3cccnc3Sc3ccccc32)cc1 | – | inactive: 14.4%
CCOc1ccc(-c2cc(C(=O)N/N=C/c3ccc(O)cc3)c3ccccc3n2)cc1 | inconclusive: 89.1 µM [inhibitor, partial curve, poor fit] | –
O=C(/C=C/c1ccco1)NC(=S)Nc1cc(-c2nc3ccccc3s2)ccc1Cl | inconclusive: 79.4 µM [inhibitor, single point] | –
Cn1c(SCc2ccccc2Cl)nc(=O)c2c1NC(=O)CC2c1cc(F)ccc1F (stereo not given) | – | inactive: 5.46%
CN(C(=O)CSc1nnc(-c2ccccc2)n1C)C1CCS(=O)(=O)C1 (stereo not given) | – | inactive: -6.4%
CCOC(=O)C1CCN(C2=C(NS(=O)(=O)c3ccc(Br)cc3)C(=O)c3ccccc3C2=O)CC1 | inconclusive: 50.1 µM [inhibitor, partial curve, poor fit] | –
CCOC(=O)c1c(C)n(C)c2ccc(OCC(O)CNC(CC)CO)cc12 (stereo not given) | – | inactive: 1.27%
N#CC1=C(N)SC(N)=C(C#N)C1c1ccnc2ccccc12 | – | inactive: -18%
CO/N=C(/C(=O)N[C@@H]1C(=O)N2C(C(=O)O)=C(CSc3nnnn3C)CS[C@H]12)c1csc(N)n1 | inconclusive: 50.1 µM [inhibitor, partial curve] | –
COc1ccc(CNC(=O)COc2ccc(C(=O)c3ccc(F)cc3)cc2)cc1 | – | inactive: 4.84%

A few values from the entries so far.
Potency with CN(CC(=O)Nc1ccccc1C(F)(F)F)Cc1c(O)ccc2ccccc12 reads inconclusive: 89.1 µM [inhibitor, single point]
Potency with CCOC(=O)C1CCN(C2=C(NS(=O)(=O)c3ccc(Br)cc3)C(=O)c3ccccc3C2=O)CC1 reads inconclusive: 50.1 µM [inhibitor, partial curve, poor fit]

Later entries.

Compound | Potency | max response, negative = inhibition
C=CCOc1ccc(/C=C2/C(=O)ON=C2C)cc1OCC | active: 79.4 µM | –
Cc1sc2ncnc(N/N=C/c3cccc(O)c3)c2c1C | – | inactive: 7.68%
O=S(=O)(CCN(CCS(=O)(=O)C(F)(F)F)CC1CCCO1)C(F)(F)F (stereo not given) | inconclusive: 50.1 µM [inhibitor, partial curve, poor fit] | –
CCCCCCCCCCC1=C(C)C(=O)C(OC)=C(OC)C1=O | active: 39.8 µM | –
[O-]/[N+](=C\c1ccc(F)cc1)c1ccccc1 | inconclusive: 44.7 µM [inhibitor, partial curve] | –
O=C(Nc1ccnn1C1CCN(C/C=C/c2ccccc2)CC1)C1CCCC1 | – | inactive: 0.366%
O=C(NCCn1cc(SCc2cccc(F)c2)c2ccccc21)c1cccc(C(F)(F)F)c1 | inconclusive: 56.2 µM [inhibitor, partial curve, poor fit] | –
CNc1nc(-c2ccc3c(c2)CCN3S(=O)(=O)c2ccccc2)c(C)s1 | inconclusive: 89.1 µM [inhibitor, single point] | –
Cc1ccc(NNC(=O)Nc2ccc(Cl)cc2)nn1 | active: 17.8 µM | –
COc1ccc(C(=O)NNC(=O)C(=O)Nc2ccc(C)c(Cl)c2)cc1 | inconclusive: 39.8 µM [inhibitor, single point] | –
COc1ccc(-c2cc(-c3ccccc3)c(C#N)c(=S)[nH]2)cc1 | inconclusive: 100 µM [inhibitor, single point] | –
CCC1CCC(C(=O)NC(C(=O)NCCN(CC(C)C)CC(C)C)C(C)C)CC1 (stereo not given) | – | inactive: 0.452%
COCC(C)n1c(SCC(=O)c2cc(C)n(C)c2C)nc2ccccc2c1=O (stereo not given) | – | inactive: -15%
Cc1ccc(-n2nc3c(c2NC(=O)c2ccco2)CS(=O)C3)cc1 (stereo not given) | inconclusive: 14.1 µM [inhibitor, partial curve] | –
CCCCN(Cc1cccs1)S(=O)(=O)c1cc(-c2cc(C)no2)ccc1C | – | inactive: 1.51%
COc1cc(OC)nc(Oc2ccccc2C(=O)Oc2ccc(Cl)cc2)n1 | inconclusive: 89.1 µM [inhibitor, single point] | –
Cc1c(C(=O)/C=C/c2cccs2)oc2ccc(F)cc12 | inconclusive: 35.5 µM [inhibitor, full curve, poor fit] | –
O=C(Nc1cc(S(=O)(=O)N2CCCCC2)ccc1O)c1ccccc1NS(=O)(=O)c1ccc(F)c(F)c1 | inconclusive: 89.1 µM [inhibitor, partial curve, poor fit] | –
O=C(CS(=O)(=O)Cc1ccccc1)Nc1nnc(C(F)(F)F)s1 | – | inactive: -3.12%
O=C(NC1CCCCC1)C1CCCN1C(=O)NCc1ccccc1 (stereo not given) | inconclusive: 0.562 µM [inhibitor, full curve, poor fit] | –
COc1cccc2cc(C(C)=O)oc12 | – | inactive: -13.6%
CSc1ccc(-c2sc(Nc3ccccc3)n[n+]2-c2ccc(F)cc2)cc1 | – | inactive: -15.8%
